Data on 44 compounds can be found in the supplement of paper PMC9135407.

The test system of the test is primary human hepatic stellate cells (donor 1). Description: percent Bodipy-positive cells; higher = more lipid droplet accumulation. Conditions: 48 h. On the procedure: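 Primary lipid accumulation screen in primary human hepatic stellate cell myofibroblasts (donor 1, passage 8) in 384-well plates. 100 nL of library compound was pin-transferred into 30 µL medium in duplicate, and cells were treated for 48 h. The 'Scaled' score combines distance from plate baseline, toxicity and reproducibility penalties, and is normalised to nortriptyline (positive) and DMSO (negative) controls on each plate. A hit is defined as scaled >0.85 or among the top 3 wells per plate.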

Where [1] appears, read: library stock concentration: 10 mM.
Where [2] appears, read: library stock concentration: 3.33 mM.
The mark [3] stands for this setting: library stock concentration: 1 mM.

Where “and” joins values, the source holds several entries; their conditions need not be identical. Identical values can stand only once. Counter-ions that a name gives are not always drawn. ± gives the standard deviation of the averaged measurements. The list shows a part of the results. Part of the spread comes from offsets between plates or batches.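 Primary human stellate myofibroblasts activated in culture; inactivation shown by regained lipid droplets. Readout: fraction of Hoechst-counted cells exceeding a per-plate Bodipy threshold, duplicate wells, each plate with DMSO negative and nortriptyline positive controls. Hits: control-normalized score beyond the plate's top-tenth-percentile nortriptyline wells, or among its three best wells. Final well concentrations unstated.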

For `Nc1nc(-c2ccc(Cl)c(Cl)c2)c(-c2ccncc2)s1` [CGH 2466 dihydrochloride], the “percent Bodipy-positive cells” value under setting [1] came out at 8.21 ± 0.3%.

As to `COCCCN1CCC(NC(=O)c2cc(Cl)c(N)c3c2OCC3)CC1` [Prucalopride Succinat], the “percent Bodipy-positive cells” value was determined as 13.6 ± 1.4% under setting [2] and 33.89 ± 0.11% under setting [1].

With `COCCCN1CCC(NC(=O)c2cc(Cl)c(N)c3c2OCC3)CC1` [Prucalopride], the “percent Bodipy-positive cells” value came to 17 ± 13% under setting [2] and 31.8 ± 20% under setting [1].

With `N[C@@H](Cc1cc(I)c(Oc2ccc(O)c(I)c2)c(I)c1)C(=O)O` [Liothyronine], the “percent Bodipy-positive cells” value stood at 10.6 ± 2.6%. Moreover, the “percent Bodipy-positive cells” value (library stock concentration: 3.1 mM) was 25.1 ± 19%.

Turning to `N[C@@H](Cc1cc(I)c(Oc2ccc(O)c(I)c2)c(I)c1)C(=O)O` [Liothyronine Sodium], the “percent Bodipy-positive cells” value by setting is: under setting [2], 7.11 ± 3.4%; under setting [1], 29.9 ± 11%.

In the case of `N[C@@H](Cc1cc(I)c(Oc2ccc(O)c(I)c2)c(I)c1)C(=O)O` [Liothyronine (l- isomer) sodium], the “percent Bodipy-positive cells” value (library stock concentration: 3 mM) is 16.3 ± 7.4%.

For the compound `N[C@@H](Cc1cc(I)c(Oc2ccc(O)c(I)c2)c(I)c1)C(=O)O` [Liothyronine sodium], the “percent Bodipy-positive cells” value under setting [1] amounted to 39.2 ± 5.7%.

Turning to `N[C@@H](Cc1cc(I)c(Oc2ccc(O)c(I)c2)c(I)c1)C(=O)O`, under setting [1], the “percent Bodipy-positive cells” value amounted to 20.7 ± 4.9%.

Regarding `Cc1cc(CN2CCN(c3c(Br)cnc4nc(-c5ccc(N6CCN(C)CC6)cc5)[nH]c34)CC2)no1`, under setting [1], the “percent Bodipy-positive cells” value was found to be 89.81 ± 0.55%.

As for `CN(C)C(=O)[C@H](O)[C@H](Cc1ccccc1)NC(=O)c1cc2cc(Cl)ccc2[nH]1`, under setting [2], the “percent Bodipy-positive cells” value was 9.77 ± 1.2%.

As for `CC1(C(=O)O)NCCc2cc(O)c(O)cc21` (stereo not given) [Salsolinol-1-carboxylic acid], the “percent Bodipy-positive cells” value under setting [1] turned out to be 4.71 ± 0.48%.

With `Cl/C(=C\n1cncn1)c1ccc(Cl)cc1Cl` [Loreclezole hydrochloride], under setting [1], the “percent Bodipy-positive cells” value came out at 6.03 ± 1.1%.

Consider `CCC(=O)NC1Cc2ccccc2C(c2ccccc2)C1` (stereo not given), for which, under setting [1], the “percent Bodipy-positive cells” value was determined as 8.99 ± 4.2%.

Take `O=C(Oc1cc(S(=O)(=O)c2ccccc2)ccc1[N+](=O)[O-])c1ccc(Cl)cc1`: the “percent Bodipy-positive cells” value under setting [2] worked out at 32 ± 4.9% and the “percent Bodipy-positive cells” value under setting [1] worked out at 26.2 ± 4%.

For the compound `O=C(O)/C=C\C(=O)O.O=C(O)/C=C\C(=O)O.c1cc(CN2CCCCC2)cc(OCCCNc2nc3ccccc3s2)c1` [Zolantidine dimaleate], the “percent Bodipy-positive cells” value under setting [1] stood at 79.1 ± 3.5%.

Consider `COc1ccc(C2CC(=O)c3c(O)cc(OC4OC(COC5OC(C)C(O)C(O)C5O)C(O)C(O)C4O)cc3O2)cc1OC` (stereo not given) [Methyl-Hesperidin], for which the “percent Bodipy-positive cells” value is 7.35 ± 3.5% under setting [2] and 16 ± 1% under setting [1].

In the case of `OCC(O)CCO/N=C1\C(c2c(O)[nH]c3ccccc23)=Nc2ccccc21` (stereo not given) [Indirubin Derivative E804], under setting [2], the “percent Bodipy-positive cells” value is 14.8 ± 6.1%.

Regarding `Cc1ccc(=O)n(-c2ccccc2)c1` [Pirfenidone], under setting [2], the “percent Bodipy-positive cells” value was 12.5 ± 7.2%.

With `CS(=O)(=O)c1ccc(-n2nc(C(F)(F)F)cc2-c2ccc(F)cc2)cc1`, the “percent Bodipy-positive cells” value under setting [1] is 32.7 ± 12%.

For `OCCCNc1cc(-c2ccnc(Nc3cccc(Cl)c3)n2)ccn1`, under setting [1], the “percent Bodipy-positive cells” value is 83.7 ± 1.6%.

For `O=C1C=CC(=O)C2=C1C1c3ccccc3C2c2ccccc21`, under setting [1], the “percent Bodipy-positive cells” value was determined as 89.2 ± 4.3%.

As to `CN1CCC(=C2c3ccccc3Sc3ccccc32)CC1` [Pimethixene maleate], the “percent Bodipy-positive cells” value is 71.2 ± 0.76%. Also, the “percent Bodipy-positive cells” value under setting [1] was determined as 74.6 ± 0.96%.

Regarding `Nc1c2ccccc2nc2ccccc12` [Aminacrine], the “percent Bodipy-positive cells” value under setting [1] came to 76.45 ± 0.53%.

Turning to `CCCCCCCC/C=C\CCCCCCCC(N)=O` [Oleamide], the “percent Bodipy-positive cells” value reads like this: under setting [3], 11.7 ± 8.6%; under setting [1], 6.94 ± 0.35%.

Turning to `CCCCCCCC/C=C\CCCCCCCC(N)=O` [9,10-Octadecenoamide], under setting [3], the “percent Bodipy-positive cells” value was 9.56 ± 3.7%.

As for `Br.CN1CCC[C@@H]1Cc1c[nH]c2ccc(CCS(=O)(=O)c3ccccc3)cc12` [Eletriptan hydrobromide], under setting [1], the “percent Bodipy-positive cells” value was determined as 89.2 ± 5.6%.

As to `NC(=O)CCCCC1CCSS1` (stereo not given), under setting [1], the “percent Bodipy-positive cells” value is 39.3 ± 8.3%.

For the compound `C=C(C)[C@H]1CC=C(C)CC1`, the “percent Bodipy-positive cells” value under setting [1] turned out to be 34.7 ± 4%.

In the case of `CC(C)NC[C@@H](O)COc1ccc(CC(N)=O)cc1` [(R)-(+)-Atenolol], the “percent Bodipy-positive cells” value was found to be 7.05 ± 0.093%.

Regarding `NS(=O)(=O)c1cc2c(cc1C(F)(F)F)NCNS2(=O)=O` [Hydroflumethiazide], the “percent Bodipy-positive cells” value is 28.4 ± 3%. For the same compound, the “percent Bodipy-positive cells” value (library stock concentration: 6 mM) amounted to 2.63 ± 0.91%. For the same compound, the “percent Bodipy-positive cells” value under setting [1] stood at 20.04 ± 0.13%.

`Cc1ncc(-c2ccnc(Nc3ccc(S(C)(=O)=O)cc3)n2)n1C(C)C`: the “percent Bodipy-positive cells” value by setting is: (library stock concentration: 80 uM) 70.5 ± 3.5%; (library stock concentration: 400 uM) 74 ± 3%; (library stock concentration: 2 mM) 62.2 ± 11%; under setting [2], 40.4 ± 6.4%; under setting [1], 56.3% and 43.6%.

For the compound `COC1(C2=NCCN2)COc2ccccc2O1` (stereo not given), the “percent Bodipy-positive cells” value under setting [1] is 11.6% and 7.66%.

Take `c1([C@]2(C(=O)OC)c3c(c4c(cccc4)[nH]3)CN(CC5C2)CC(CC)=C5)cc6c(N(C)[C@]7([H])[C@]6(CC8)[C@]([H])(N89)[C@@](CC)(C=CC9)[C@@H](OC(=O)C)[C@]7(O)C(=O)OC)cc1OC.C(=O)(O)[C@H](O)[C@@H](O)C(=O)O.C(=O)(O)[C@H](O)` (stereo not given in full) [Vinorelbine Tartrate]: the “percent Bodipy-positive cells” value is, setting by setting: under setting [2], 99.01 ± 0.67%; under setting [1], 99.83 ± 0.23%.

As to `CC(O)Cn1cnc2c1c(=O)n(C)c(=O)n2C` (stereo not given) [Proxyphylline], the “percent Bodipy-positive cells” value worked out at 8.63 ± 2.3%.

As to `CCCCC/C=C\C/C=C\C/C=C\C/C=C\CCCC(=O)OC(COCCCCCCCCCCCCCCCC)COP(=O)([O-])OCC[N+](C)(C)C` (stereo not given) [Arachidonoyl PAF C-16], under setting [3], the “percent Bodipy-positive cells” value stood at 12.1 ± 3%.

With `Nc1cc(=O)[nH]c(N)n1` [2,4-Diamino-6-pyrimidinone], the “percent Bodipy-positive cells” value under setting [1] stood at 27.8 ± 0.84%.

Take `O=C(OOC(=O)c1ccccc1)c1ccccc1` [Benzoyl peroxide]: the “percent Bodipy-positive cells” value (library stock concentration: 8.3 mM) turned out to be 22.8 ± 14%.

Turning to `N[C@@H](Cc1c[nH]c2ccccc12)C(=O)O` [L-Tryptophan], the “percent Bodipy-positive cells” value under setting [1] is 18.5 ± 5%.

As for `N[C@@H](Cc1c[nH]c2ccccc12)C(=O)O` [Tryptophan], the “percent Bodipy-positive cells” value under setting [1] came out at 23.6 ± 1.5%.

Take `CCC1(C)OC(=O)N(C)C1=O` (stereo not given): under setting [1], the “percent Bodipy-positive cells” value worked out at 26.9 ± 0.42%.

Turning to `NC(=O)CCCCn1ccc(NC(N)=NCC(F)(F)F)n1`, under setting [1], the “percent Bodipy-positive cells” value is 9.74 ± 0.82%.

Regarding `CCCCC[C@@](C)(O)/C=C/[C@H]1C(=O)C[C@H](O)[C@@H]1C/C=C\CCCC(=O)O` [15(R)-15-methyl Prostaglandin D2], under setting [3], the “percent Bodipy-positive cells” value is 15.2 ± 3.8%.

`CCCCC(C)(C)[C@H](O)/C=C/[C@H]1C=CC(=O)[C@@H]1CCCCCCC(=O)O` [16,16-dimethyl Prostaglandin A1]: under setting [3], the “percent Bodipy-positive cells” value turned out to be 8.24 ± 0.51%.

With `OCc1c[nH]c2ccccc12` [Indole-3-carbinol], the “percent Bodipy-positive cells” value by setting is: under setting [2], 11 ± 2.8%; under setting [1], 22.4 ± 14%.
